In PubChem BioAssay AID651640 (Broad Institute, 2012):
Out of some 350,000 compounds screened, about 6,000 (1.7%) were called active. The inconclusive results got no clear call from the source; some entries with a clear call stand among them for comparison. No stated cut-off is given here; in the data, active means CPE inhibition above about 20% (passing the limit was not always enough); inconclusive means no clear call, values can overlap the other calls; tested in BHK-21 cells.

Experiment: protection of cells from dengue 2 killing – plate reader, single concentration, primary screen (AID 651640);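 further: 0% = median of neutral control wells and 100% = median of positive control wells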
Details: DENV2-infected cells, cytopathic effect rescue, at 9.99 µM, stronger effect = higher value

Row | SMILES | CPE inhibition
1 | COc1cccc(NC(=O)N[C@@H]2CC[C@H](CC(=O)N3CCCCC3)O[C@H]2CO)c1 | inconclusive: 21.9%
2 | COc1cnc(SC(C)C)[nH]c1=O | inconclusive: 33.3%
3 | C[C@H]1CN([C@@H](C)CO)C(=O)Cc2cc(NC(=O)C3CC3)ccc2O[C@H]1CN(C)S(=O)(=O)c1ccc(F)cc1 | inactive: 10.2%
4 | COc1ccc(C(=O)C2CCN(C(=S)NCCc3ccc(OC)c(OC)c3)CC2)cc1 | inactive: -6.34%
5 | C[C@@H]1CN([C@@H](C)CO)S(=O)(=O)c2ccc(C#CC3CC3)cc2O[C@H]1CN(C)C(=O)c1ccccc1 | inactive: 1.36%
6 | COC(=O)C[C@@H]1CC[C@H]2[C@H](COc3ccc(NC(=O)c4cccc(OC)c4)cc3C(=O)N2C)O1 | inconclusive: 53.7%
7 | CC1(C(=O)O)C=CC2(CCCCC2)N1C(=O)c1ccccc1 (centres undefined) | inconclusive: 33.6%
8 | CN1CCN(CCOc2ccc(-c3ccccc3)cc2)CC1 | active: 48.9%
9 | CCOc1ccc(CN2CCNC(=O)C2CC(=O)NC2CCCCCC2)cc1 (centres undefined) | inactive: -1.2%
10 | COc1ccc(NC(=O)N2CCCCN3[C@H](C2)[C@@H](c2ccc(-c4ccccc4C)cc2)[C@@H]3CO)cc1 | inactive: 8.04%
11 | COc1ccc(S(=O)(=O)NC(=O)C2(C)CCN2C(=O)COc2ccc(Cl)cc2)cc1OC (centres undefined) | inconclusive: 43.2%
12 | Fc1ccc(-c2nnn(Cc3ccc(F)cc3Cl)n2)cc1 | inconclusive: 30.5%
13 | COCCn1nc2cc(C(=O)NCc3cc(C(F)(F)F)cc(C(F)(F)F)c3)ccc2c1OC | inconclusive: 21.3%
14 | C[C@@H]1CN([C@H](C)CO)C(=O)c2cc(C#Cc3ccccc3)cnc2O[C@@H]1CN(C)C(=O)CCN1CCCCC1 | inactive: -6.61%
15 | COC(=O)C[C@H]1CC[C@H]2[C@H](COc3ccc(NC(=O)Nc4ccccc4C)cc3C(=O)N2C)O1 | inconclusive: 61.1%
16 | Cc1ccc(S(=O)(=O)N[C@H]2C=C[C@H](CC(=O)N3CCC(Cc4ccccc4)CC3)O[C@H]2CO)cc1 | inconclusive: 29.6%
17 | O=C(c1ccc(F)cc1)N1CC(=O)N2[C@H](CO)[C@@H](c3ccc(C#CC4CC4)cc3)[C@@H]2C1 | inactive: 8.81%
18 | CCCn1c(C)cc(-c2csc(NC(=O)CCc3nc4ccccc4c(=O)[nH]3)n2)c1C | inconclusive: 84.2%
19 | Cc1cnc(NC(=O)C2CC(=O)N(c3cccc(Cl)c3)C2)s1 (centres undefined) | active: 32.7%
20 | Cc1ccc(S(=O)(=O)N2C[C@H]3C(=O)C[C@@H](c4cccc(Cl)c4)N(S(=O)(=O)c4ccc(C)cc4)[C@H]3C[C@H]2c2ccccc2)cc1 | inactive: -5.27%
21 | C[C@@H]1CN([C@H](C)CO)S(=O)(=O)c2ccc(C#CC3CCCCC3)cc2O[C@@H]1CN(C)C(=O)Cc1ccncc1 | inactive: 11.6%
22 | CCCNC(=O)[C@H]1[C@H](CO)[C@H]2Cn3c(ccc(-c4ccccc4F)c3=O)[C@@H]1N2C(=O)CC | inconclusive: 30.7%
23 | COc1cccc(N2CCN(C(=O)c3cccc(NC4=NC5CS(=O)(=O)CC5S4)c3)CC2)c1 (centres undefined) | active: 34.8%
24 | COc1ccc(CCNC(=O)C2CC(c3ccc([N+](=O)[O-])cc3)=NO2)cc1 (centres undefined) | inconclusive: 55.2%
25 | COc1cccc(S(=O)(=O)N(C)C[C@@H]2OCc3ccccc3-c3ccccc3C(=O)N([C@@H](C)CO)C[C@H]2C)c1 | inconclusive: 61.5%

Row | SMILES | CPE inhibition
26 | CC(C)c1cccc(C(C)C)c1NC(=O)c1ccccc1 | inconclusive: 42.5%
27 | C[C@H](CO)N1C[C@H](C)[C@H](CN(C)C(=O)Cc2ccccn2)Oc2ncc(C#CC3CC3)cc2C1=O | active: 24.7%
28 | C[C@@H]1CN([C@H](C)CO)C(=O)Cc2cc(NC(=O)C3CC3)ccc2O[C@H]1CN(C)S(=O)(=O)c1ccccc1 | inconclusive: 20.4%
29 | Cc1cc(C)cc(Nc2cc(C)nc3nc(C)nn23)c1 | inconclusive: 20.2%
30 | C[C@@H]1CN([C@@H](C)CO)C(=O)c2cc(C3=CCCC3)cnc2O[C@@H]1CN(C)C(=O)c1ccc2c(c1)OCO2 | inconclusive: 24%
31 | C[C@@H](O)C#Cc1ccc2c(c1)O[C@@H](CN(C)C(=O)c1ccncc1)[C@@H](C)CN([C@@H](C)CO)S2(=O)=O | inconclusive: 14.1%
32 | Cn1cnc(CCNC(=O)C[C@@H]2CC[C@@H]3[C@H](COC[C@H](O)CN3C(=O)C3CC3)O2)c1 | inactive: 0.483%
33 | COC(=O)Nc1nc2ccc(C(=O)c3cccs3)cc2[nH]1 | inconclusive: 40.6%
34 | COCC1COS(=O)(=O)NC1(C)C (centres undefined) | active: 20.3%
35 | CSc1ccccc1OCc1cc(C(=O)N2CCc3[nH]cnc3C2c2ccccn2)no1 (centres undefined) | active: 49.7%
36 | Nc1cccc2c(O)cccc12 | active: 31.5%
37 | CCOC(=O)NCc1ccc2[nH]c(C)cc2c1 | inactive: 1.5%
38 | Cc1ccc(S(=O)(=O)Nc2cccc3c2O[C@@H](CN(C)CC2CC2)[C@H](C)CN([C@@H](C)CO)C3=O)cc1 | inactive: 17.9%
39 | CCN1C(=O)[C@H]2[C@@H](c3ccc(OC)cc3)N3C(=O)CN(CCOC)C(=O)[C@@]3(Cc3ccccc3)[C@H]2C1=O | active: 65.7%
40 | COc1ccc2c(c1)OC[C@H]1[C@H]2N2C(=O)c3cc(OC)ccc3NC(=O)[C@@]2(C)[C@H]1c1ccccc1 | active: 47.2%
41 | COc1ccc(CN(C)C(=O)Cn2cc(C)c(=O)[nH]c2=O)cc1OC | inconclusive: 20.3%
42 | COc1ccccc1C#Cc1ccc2c(c1)[C@@H]1[C@@H](CCN1C(=O)c1ccccc1)[C@H](CO)N2 | active: 45.1%
43 | CCN(C)C1CN(Cc2cn(Cc3ccc(F)cc3)nn2)S(=O)(=O)C1 (centres undefined) | active: 45.9%
44 | Cc1ccccc1-n1c(=O)cc(N2CCC3(CC2)OCCO3)[nH]c1=O | inconclusive: 28.2%
45 | COc1cc(/C=C/C(=O)OCC(=O)Nc2c(C)n(C)n(-c3ccccc3)c2=O)cc(OC)c1OC | inconclusive: 40.4%
46 | Cn1c(=O)c([N+](=O)[O-])c(-n2ccnc2)c2ccccc21 | inactive: 10.2%
47 | COc1ccccc1-c1cn(CC[C@@H]2CC[C@@H](NC(=O)C3CC3)[C@H](CO)O2)nn1 | inactive: -3.04%
48 | Cn1c(Cn2nnc3ccccc32)nnc1SCC(=O)Nc1ccc2c(c1)OCO2 | inactive: -4.63%
49 | COc1ccc(Cl)cc1N(C(=O)c1ccco1)C(C(=O)NC1CCCC1)c1ccncc1 (centres undefined) | inactive: 2.9%
50 | CCCN1C[C@H](C)[C@@H](OC)CN(C)C(=O)c2ccc(NC(=O)c3ccccc3)cc2OC[C@@H]1C | active: 23.2%

Row | SMILES | CPE inhibition
51 | CCOc1cc2c(cc1OCC)CN(C(=O)c1cccc(S(=O)(=O)N3CCCC3)c1)CC2 | inactive: -1.98%
52 | Cc1ccc(C(C(=O)NC2CCCCC2)N(CCCN2CCOCC2)C(=O)c2snc(C(N)=O)c2N)cc1 (centres undefined) | inactive: 2.41%
53 | O=C(Nc1ccc(N2CCOCC2)c(Cl)c1)c1ccc(-n2cnnc2)cc1 | inconclusive: 47.9%
54 | N#C[C@H]1[C@H](c2ccc(-c3cccnc3)cc2)[C@@H](CO)N1C(=O)C1CC1 | inactive: -5.88%
55 | Cc1ccc(C(=O)NNC(=O)CSc2nc(N)cc(N)n2)cc1 | inconclusive: 20.3%
56 | COc1ccc(-c2nn(-c3ccccc3)cc2C(=O)N(C)C)cc1 | inconclusive: 20.7%
57 | Cc1ccc(CNC(=O)CS(=O)Cc2nc(-c3cccs3)oc2C)cc1 (centres undefined) | inconclusive: 47%
58 | FC(F)(F)c1cc(-c2ccccc2)nc(NCc2cccs2)n1 | inconclusive: 68.6%
59 | C[C@@H]1CCCCO[C@@H](CN(C)Cc2ccc3c(c2)OCO3)[C@@H](C)CN([C@H](C)CO)C(=O)c2cc(N(C)C)ccc2O1 | inconclusive: 33%
60 | Cc1ccc(NC(=O)CN(C)C(=O)c2ccc(COc3ccccc3)cc2)cc1 | inconclusive: 39.3%
61 | O=C(c1ccccc1)N1CC2(C1)[C@@H](c1ccccc1)[C@@H](CO)N2Cc1ccccn1 | active: 21%
62 | COC(=O)[C@]12CCCCC=C1N(CCC1=CCCCC1)C(=O)[C@H](CC(=O)NCc1cccc(C(F)(F)F)c1)C2 | active: 50.6%
63 | CNC(=S)NC1(C)CCS(=O)(=O)C1 (centres undefined) | inconclusive: 22.3%
64 | O=c1ccc2ccc(O)cc2o1 | inconclusive: 46.4%
65 | COc1ccc(S(=O)(=O)Nc2cccc3c2O[C@H](CN(C)S(=O)(=O)c2ccc(Cl)cc2)[C@@H](C)CN([C@@H](C)CO)C3=O)cc1 | inactive: 16.2%
66 | C/C=C/c1ccc2c(c1)O[C@H](CN(C)C(=O)NCCC)[C@H](C)CN([C@@H](C)CO)S2(=O)=O | inactive: -3.62%
67 | COc1ccccc1CNC(=O)C(=O)NCCC1CCCCN1S(=O)(=O)c1ccccc1 (centres undefined) | inconclusive: 64.5%
68 | CN1c2ccc(-c3ccccc3)cc2[C@@H]2[C@@H](CCN2C(=O)Cc2cccnc2)[C@H]1CO | inconclusive: 50.8%
69 | CC1=CC(=O)C(C(C)C)=C/C1=N/OC(=O)c1cccc([N+](=O)[O-])c1 | inconclusive: 29%
70 | O=C(CSc1nc2sc3c(c2c(=O)n1-c1ccccc1)CCCC3)NCc1ccco1 | inconclusive: 24.1%
71 | COc1ccc(OC)c(/C=N/NC(=O)c2c(C)nc3ccc(C)cn23)c1 | inconclusive: 22%
72 | COc1cccc(NC(=O)N2C3CCCC2CC(NC(=O)C(C)(C)C)C3)c1 (centres undefined) | inconclusive: 25.2%
73 | COc1ccc(S(=O)(=O)N(C)C[C@@H]2OCCCC[C@H](C)Oc3ccc(NC(=O)C4CCCCC4)cc3C(=O)N([C@H](C)CO)C[C@@H]2C)cc1 | inconclusive: 20.6%
74 | COCC(=O)Nc1ccc2c(c1)C(=O)N(C)C[C@H](OC)[C@H](C)CN(C(=O)c1ccccn1)[C@@H](C)CO2 | active: 65.3%

3 consecutive compounds out of the list so far:
Row | SMILES | CPE inhibition
58 | FC(F)(F)c1cc(-c2ccccc2)nc(NCc2cccs2)n1 | inconclusive: 68.6%
59 | C[C@@H]1CCCCO[C@@H](CN(C)Cc2ccc3c(c2)OCO3)[C@@H](C)CN([C@H](C)CO)C(=O)c2cc(N(C)C)ccc2O1 | inconclusive: 33%
60 | Cc1ccc(NC(=O)CN(C)C(=O)c2ccc(COc3ccccc3)cc2)cc1 | inconclusive: 39.3%
